# No constants are given. Whether binding was seen depends on the method and setting. Some entries that bind do so weakly or less than the wild type.
# Protein sequences, listed by entry. Tags and fused reporters are not part of them.
# UniProt Q80J94: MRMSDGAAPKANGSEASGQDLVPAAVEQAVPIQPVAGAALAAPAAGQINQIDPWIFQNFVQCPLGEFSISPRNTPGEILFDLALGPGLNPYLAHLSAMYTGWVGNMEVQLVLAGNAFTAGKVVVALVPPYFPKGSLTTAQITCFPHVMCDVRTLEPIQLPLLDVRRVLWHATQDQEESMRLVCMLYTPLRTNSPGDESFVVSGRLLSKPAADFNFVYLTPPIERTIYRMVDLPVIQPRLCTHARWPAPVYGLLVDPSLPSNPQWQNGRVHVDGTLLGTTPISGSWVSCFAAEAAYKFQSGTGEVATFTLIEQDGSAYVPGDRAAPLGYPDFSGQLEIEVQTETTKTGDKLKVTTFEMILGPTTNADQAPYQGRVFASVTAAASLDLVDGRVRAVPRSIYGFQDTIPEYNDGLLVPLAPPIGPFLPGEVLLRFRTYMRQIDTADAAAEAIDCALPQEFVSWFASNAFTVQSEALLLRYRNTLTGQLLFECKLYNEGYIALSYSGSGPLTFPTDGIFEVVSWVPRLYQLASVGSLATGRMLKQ
# How the values were obtained:
# [1] = target: T1, CD300lf, cellular receptor of MNoV, expressed on HEK293T cells (UniProt Q6SJQ7); assay: virus attachment to cells measured by qRT-PCR; purified infectious particles pretreated with DMEM; HEK293T/CD300lf cells, 10^5 cells/well, MOI ≦ 10, 30 min at 37°C, washed twice with DMEM, RNA of attached virus by qRT-PCR; only the binder purified
# T1 sequence: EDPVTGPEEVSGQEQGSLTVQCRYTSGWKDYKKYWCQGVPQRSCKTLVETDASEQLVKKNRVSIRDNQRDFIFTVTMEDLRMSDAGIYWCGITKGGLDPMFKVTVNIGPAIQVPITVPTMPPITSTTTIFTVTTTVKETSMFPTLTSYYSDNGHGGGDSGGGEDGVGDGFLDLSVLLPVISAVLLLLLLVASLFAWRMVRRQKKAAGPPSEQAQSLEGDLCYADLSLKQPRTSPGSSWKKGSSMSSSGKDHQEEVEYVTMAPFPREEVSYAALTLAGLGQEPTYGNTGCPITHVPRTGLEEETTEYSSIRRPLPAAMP
# [2] = target: T1, CD300lf, cellular receptor of MNoV, expressed on HEK293T cells; assay: virus attachment to cells measured by qRT-PCR; purified infectious particles pretreated with PBS(-)+EDTA (pH 8); HEK293T/CD300lf cells, 10^5 cells/well, MOI ≦ 10, 30 min at 37°C, washed twice with DMEM, RNA of attached virus by qRT-PCR; only the binder purified
substance,measurement,setting,value
"VP1 capsid protein of murine norovirus type 1 (MNoV-1), as the capsid of infectious particles (from UniProt Q80J94 1-541)",binding,[1],binds
same,binding,[2],binds

# Reference: article PMC7331980, “Dynamic rotation of the protruding domain enhances the infectivity of norovirus” (PLoS Pathogens, 2020)
